Reference: article PMC4439128
These are yes or no findings as the source states them, for the method shown. In cells and extracts the contact can be indirect. Some binding calls cover weakened binding; strength is not graded here. Where a sequence is shown, tags or fusion partners need not be part of it.

Protein sequences, listed by entry. Tags and fused reporters are not part of them.
UniProt P54843: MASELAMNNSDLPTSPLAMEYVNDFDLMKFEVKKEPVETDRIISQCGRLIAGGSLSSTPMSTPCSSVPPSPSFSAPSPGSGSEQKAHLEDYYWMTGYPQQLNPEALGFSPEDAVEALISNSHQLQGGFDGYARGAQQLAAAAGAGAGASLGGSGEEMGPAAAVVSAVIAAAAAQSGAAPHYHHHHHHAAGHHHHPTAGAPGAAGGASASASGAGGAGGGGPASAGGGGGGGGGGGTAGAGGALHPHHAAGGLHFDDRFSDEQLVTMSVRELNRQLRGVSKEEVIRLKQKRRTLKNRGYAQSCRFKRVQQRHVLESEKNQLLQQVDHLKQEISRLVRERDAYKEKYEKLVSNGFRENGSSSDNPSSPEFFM
UniProt Q03526: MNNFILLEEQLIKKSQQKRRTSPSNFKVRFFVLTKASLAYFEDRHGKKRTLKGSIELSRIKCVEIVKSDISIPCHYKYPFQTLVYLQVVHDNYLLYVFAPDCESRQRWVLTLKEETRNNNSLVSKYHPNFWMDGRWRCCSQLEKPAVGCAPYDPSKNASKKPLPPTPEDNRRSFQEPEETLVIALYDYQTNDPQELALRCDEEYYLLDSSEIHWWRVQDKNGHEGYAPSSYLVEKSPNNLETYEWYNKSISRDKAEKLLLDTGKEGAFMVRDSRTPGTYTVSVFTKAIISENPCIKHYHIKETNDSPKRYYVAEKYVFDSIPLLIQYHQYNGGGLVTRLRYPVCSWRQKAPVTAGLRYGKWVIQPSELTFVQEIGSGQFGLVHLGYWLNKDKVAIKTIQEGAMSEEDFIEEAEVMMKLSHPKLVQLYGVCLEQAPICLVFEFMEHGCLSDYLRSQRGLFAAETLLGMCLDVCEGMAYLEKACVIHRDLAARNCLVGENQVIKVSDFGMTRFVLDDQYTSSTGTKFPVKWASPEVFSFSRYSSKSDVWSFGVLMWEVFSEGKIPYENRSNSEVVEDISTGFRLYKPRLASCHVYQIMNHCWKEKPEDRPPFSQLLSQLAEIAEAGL

B1: Tec-3XFLAG (enzyme, UniProt P24604 1-630)
chain: MNFNTILEEILIKRSQQKKKTSLLNYKERLCVLPKSVLSYYEGRAEKKYRKGVIDISKIKCVEIVKNDDGVIPCQNKFPFQVVHDANTLYIFAPSPQSRDRWVKKLKEEIKNNNNIMIKYHPKFWADGSYQCCRQTEKLAPGCEKYNLFESSIRKTLPPAPEIKKRRPPPPIPPEEENTEEIVVAMYDFQATEAHDLRLERGQEYIILEKNDLHWWRARDKYGSEGYIPSNYVTGKKSNNLDQYEWYCRNTNRSKAEQLLRTEDKEGGFMVRDSSQPGLYTVSLYTKFGGEGSSGFRHYHIKETATSPKKYYLAEKHAFGSIPEIIEYHKHNAAGLVTRLRYPVSTKGKNAPTTAGFSYDKWEINPSELTFMRELGSGLFGVVRLGKWRAQYKVAIKAIREGAMCEEDFIEEAKVMMKLTHPKLVQLYGVCTQQKPIYIVTEFMERGCLLNFLRQRQGHFSRDMLLSMCQDVCEGMEYLERNSFIHRDLAARNCLVNEAGVVKVSDFGMARYVLDDQYTSSSGAKFPVKWCPPEVFNYSRFSSKSDVWSFGVLMWEIFTEGRMPFEKNTNYEVVTMVTRGHRLHRPKLATKYLYEVMLRCWQERPEGRPSLEDLLRTIDELVECEETFGR
B2: Rlk-3XFLAG (enzyme, UniProt P42682 1-527)
chain: MILSSYSSFQSVLCCCCCRCSVQKRQVRTQISLSREEELSEKHSQRQRPWFAKLMGKTQSNRGGVQPSKRKPLPPLPQEPPDERIQVKALYDFLPREPGNLALKRAEEYLILERCDPHWWKARDRFGNEGLIPSNYVTENRLANLEIYEWYHKNITRNQTERLLRQEAKEGAFIVRDSRHLGSYTISVFTRARRHTQSSIKHYQIKKNDSGQWYITERHLFPSVPELIQYHQYNAAGLISRLRYPIGLLGSCLPATSGFSYEKWEIDPSELAFVKEIGSGQFGVVHLGEWRAHIPVAIKAINEGSMSEEDFIEEAKVMMKLSHSRLVQLYGVCIQQKPLYIVTEFMENGCLLDYLRERKGQLQKALLLSMCQDICEGMAYLERSCYIHRDLAARNCLVSSACVVKISDFGMARYVLDDEYISSSGAKFPVKWCPPEVFHFNKYSSKSDVWSFGVLMWEVFTEGKMPFENKSNLQVVEAISQGFRLYRPHLAPMTIYRVMYSCWHESPKGRPTFAELLQVLTEIAETW

Biological target: HA-c-Maf (mouse) (UniProt P54843)
Experiment: co-IP; HA-c-Maf co-expressed with C-terminal 3XFLAG-tagged Tec kinases in HEK 293T cells; whole cell extract after 24 hours; IP with anti-c-Maf, blot with anti-FLAG

Molecule | binding
Itk-3XFLAG (from UniProt Q03526 1-625) (enzyme) | no binding
B1 | binds
B2 | no binding
